Data published in patent publication US20060277620.
For some of these results: Results from cells or extracts need not show a direct contact. Where a protein sequence is shown, tags need not be part of it.

How the values were obtained:
[1] = system: T1, GAD11 (GAL4 AD fusion clone) (Aspergillus niger); assay: one hybrid; details: growth on SD/-Leu/-His with 30 mM 3-AT; protein in a lysate after overexpression; variant of BREF51
T1 sequence: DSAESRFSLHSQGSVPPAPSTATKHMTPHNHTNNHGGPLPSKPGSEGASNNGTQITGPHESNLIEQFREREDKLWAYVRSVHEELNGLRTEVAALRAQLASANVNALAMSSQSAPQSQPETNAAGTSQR

[2] = system: T2, GAD1 (GAL4 AD fusion clone) (Aspergillus niger); assay: one hybrid; details: growth on SD/-Leu/-His with 30 mM 3-AT; protein in a lysate after overexpression; variant of BREF51
T2 sequence: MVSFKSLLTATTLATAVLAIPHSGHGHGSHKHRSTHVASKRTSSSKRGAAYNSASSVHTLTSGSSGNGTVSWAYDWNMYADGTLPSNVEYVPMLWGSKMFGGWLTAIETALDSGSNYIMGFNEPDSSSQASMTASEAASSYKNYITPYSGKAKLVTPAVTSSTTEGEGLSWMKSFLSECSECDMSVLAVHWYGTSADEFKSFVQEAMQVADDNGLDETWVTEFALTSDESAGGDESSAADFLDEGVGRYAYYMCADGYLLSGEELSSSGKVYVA

[3] = system: T1, GAD11 (GAL4 AD fusion clone) (Aspergillus niger); assay: EMSA; details: larger shift than GAD1; poly(dI-dC); protein in a lysate after overexpression; label: 32P
[4] = system: T2, GAD1 (GAL4 AD fusion clone) (Aspergillus niger); assay: EMSA; details: shift similar to A. niger total extract; poly(dI-dC); protein in a lysate after overexpression; label: 32P

Row | Sequence | activity on this sequence [1] | activity on this sequence [2] | binding result [3] | binding result [4]
1 | ACTAGTCACAAGTTACGAGTTGTGTACATAACATCATTAGTCATGAAGATC (double strand) [BREF51 three tandem copies in pHISi-1] | active | active |  | 
2 | ACTAGTCACAAGTTACGAGTTGTGTACATAACATCATTAGTCATGAAGATC (double strand) [BREF51] |  |  | binds | binds
